No constants are given. Whether binding was seen depends on the method and setting. Some results given as binding are weak or reduced against the parent protein; the word gives no strength.
Molecular target: ActRIIA-Fc (ActRIIA-mFc, dimeric protein) (human) (UniProt P27037)
Assay: SPR (BIACORE) competition; captured Ab-14E1, 50 nM ActRIIA-Fc premixed with ligand up to 100 nM; competitor Ab-14E1

By UniProt entry, the sequences of proteins in these tests, tags left out. Where a name states a change or a piece, a line headed by the entry shows the natural chain unless it says otherwise.
UniProt P27037: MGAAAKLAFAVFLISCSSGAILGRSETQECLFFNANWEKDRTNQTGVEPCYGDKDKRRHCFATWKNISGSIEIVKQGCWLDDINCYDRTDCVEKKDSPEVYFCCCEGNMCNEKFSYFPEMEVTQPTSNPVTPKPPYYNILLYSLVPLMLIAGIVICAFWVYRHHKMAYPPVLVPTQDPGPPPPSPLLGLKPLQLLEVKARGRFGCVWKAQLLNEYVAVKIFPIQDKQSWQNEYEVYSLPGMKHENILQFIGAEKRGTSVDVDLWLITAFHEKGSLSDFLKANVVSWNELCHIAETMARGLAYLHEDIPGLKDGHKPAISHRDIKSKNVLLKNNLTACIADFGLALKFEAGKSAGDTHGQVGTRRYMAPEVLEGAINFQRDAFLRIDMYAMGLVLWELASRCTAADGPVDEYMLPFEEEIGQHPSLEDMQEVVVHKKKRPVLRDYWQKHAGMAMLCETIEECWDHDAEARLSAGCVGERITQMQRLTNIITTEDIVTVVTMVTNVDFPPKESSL

Row | Binder | binding
1 | activin B (ligand, UniProt P09529 293-407, looked up) GLECDGRTNLCCRQQFFIDFRLIGWNDWIIAPTGYYGNYCEGSCPAYLAGVPGSASSFHTAVVNQYRMRGLNPGTVNSCCIPTKLSTMSMLYFDDEYNIVKRDVPNMIVEECGCA | binds
2 | GDF-11 (ligand, UniProt O95390 299-407, looked up) NLGLDCDEHSSESRCCRYPLTVDFEAFGWDWIIAPKRYKANYCSGQCEYMFMQKYPHTHLVQQANPRGSAGPCCTPTKMSPINMLYFNDKQQIIYGKIPGMVVDRCGCS | binds

— patent US20120121576A1
